The test deals with T1, receptor interacting protein kinase 1 (RIPK1) (mouse (endogenous in ventricular myocardium)), Q60855.
T1 chain: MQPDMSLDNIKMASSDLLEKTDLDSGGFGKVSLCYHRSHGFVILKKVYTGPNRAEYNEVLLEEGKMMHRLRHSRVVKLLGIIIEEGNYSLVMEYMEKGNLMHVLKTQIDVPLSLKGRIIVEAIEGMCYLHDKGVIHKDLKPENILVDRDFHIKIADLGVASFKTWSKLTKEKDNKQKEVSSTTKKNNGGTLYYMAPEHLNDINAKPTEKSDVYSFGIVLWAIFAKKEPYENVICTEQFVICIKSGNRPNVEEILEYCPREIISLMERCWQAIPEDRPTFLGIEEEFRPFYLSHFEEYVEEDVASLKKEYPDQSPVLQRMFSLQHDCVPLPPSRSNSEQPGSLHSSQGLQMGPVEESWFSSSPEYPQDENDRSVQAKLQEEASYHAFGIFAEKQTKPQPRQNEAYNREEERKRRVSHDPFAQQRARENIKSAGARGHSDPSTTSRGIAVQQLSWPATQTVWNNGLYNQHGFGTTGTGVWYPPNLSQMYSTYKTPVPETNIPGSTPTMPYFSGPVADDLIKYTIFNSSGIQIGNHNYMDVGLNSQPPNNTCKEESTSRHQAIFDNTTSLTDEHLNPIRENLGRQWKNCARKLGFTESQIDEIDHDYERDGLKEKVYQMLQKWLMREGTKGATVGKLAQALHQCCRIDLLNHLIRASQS
In words: co-IP. As to conditions: remark: other sources report otherwise.

These are yes or no findings as the source states them, for the method shown. Binding seen in cells or lysates may run through a third protein. Some entries that bind do so weakly or less than the wild type.

This is an account of results in paper doi:10.1101/2019.12.19.883322.

B1: RIPK3, Q9QZL0 1-486 (protein)
chain: MSSVKLWPTGASAVPLVSREELKKLEFVGKGGFGVVFRAHHRTWNHDVAVKIVNSKKISWEVKAMVNLRNENVLLLLGVTEDLQWDFVSGQALVTRFMENGSLAGLLQPECPRPWPLLCRLLQEVVLGMCYLHSLNPPLLHRDLKPSNILLDPELHAKLADFGLSTFQGGSQSGSGSGSGSRDSGGTLAYLDPELLFDVNLKASKASDVYSFGILVWAVLAGREAELVDKTSLIRETVCDRQSRPPLTELPPGSPETPGLEKLKELMIHCWGSQSENRPSFQDCEPKTNEVYNLVKDKVDAAVSEVKHYLSQHRSSGRNLSAREPSQRGTEMDCPRETMVSKMLDRLHLEEPSGPVPGKCPERQAQDTSVGPATPARTSSDPVAGTPQIPHTLPFRGTTPGPVFTETPGPHPQRNQGDGRHGTPWYPWTPPNPMTGPPALVFNNCSEVQIGNYNSLVAPPRTTASSSAKYDQAQFGRGRGWQPFHK
Turning to B1, the binding entry is “binds”.
